US20220056134A1 (Genentech, published 2022)
These are yes or no findings as the source states them, for the method shown. Some results given as binding are weak or reduced against the parent protein; the word gives no strength.

Chains of the proteins cited; added tags and fusions are not shown. Residues count along the entry.
UniProt P35225, residues 35-146: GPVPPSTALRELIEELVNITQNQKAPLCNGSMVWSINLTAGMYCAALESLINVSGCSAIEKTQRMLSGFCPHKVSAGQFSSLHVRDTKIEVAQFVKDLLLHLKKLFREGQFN

Molecular target: IL-13 (in-house) (UniProt P35225)
Experiment: SPR

binding | Binder
binds | anti-IL-13 Fab variant CDR H3 D95A (Fab, name in Kabat numbering, V domains shown, Fab; variable domains only; Kabat numbering) VH: EVTLRESGPALVKPTQTLTLTCTVSGFSLSAYSVNWIRQPPGKALEWLAMIWGDGKIVYNSALKSRLTISKDTSKNQVVLTMTNMDPVDTATYYCAGAGYYPYAMDNWGQGSLVTVSS VL: DIVLTQSPDSLSVSLGERATINCRASKSVDSYGNSFMHWYQQKPGQPPKLLIYLASNLESGVPDRFSGSGSGTDFTLTISSLQAEDVAVYYCQQNNEDPRTFGGGTKVEIK
binds | anti-IL-13 Fab variant CDR H3 P99A (Fab, name in Kabat numbering, V domains shown, Fab; variable domains only; Kabat numbering) VH: EVTLRESGPALVKPTQTLTLTCTVSGFSLSAYSVNWIRQPPGKALEWLAMIWGDGKIVYNSALKSRLTISKDTSKNQVVLTMTNMDPVDTATYYCAGDGYYAYAMDNWGQGSLVTVSS VL: DIVLTQSPDSLSVSLGERATINCRASKSVDSYGNSFMHWYQQKPGQPPKLLIYLASNLESGVPDRFSGSGSGTDFTLTISSLQAEDVAVYYCQQNNEDPRTFGGGTKVEIK
